# According to PubChem BioAssay AID1345085 (National Center for Advancing Translational Sciences (NCATS), 2018):
# The shares of active, inactive and inconclusive entries below differ from those in the screen. Potencies beside an inconclusive call are fits to weak or partial responses and may not hold up. Calls of active or inactive are those of the source. Calls come from the whole dose curve; as a rule, active = well fitted cell-killing curve with a large enough effect; inconclusive = small, poorly fitted or top-dose-only effect, or effect the other way; inactive = no such curve, though single readings can be large or run the other way.
# System: Jar
# Experiment: Confirmatory qHTS for gynecologic anti-cancer compounds from libraries of approved drugs and bioactive compounds; note: nearly all actives have a fitted effect of over 55% in size
# Conditions: gynecologic cancer cell panel viability, ATPlite luminescence, 48 h; series mostly up to 57.6 µM; activity change, negative = viability loss: at the top concentration
# Method in brief: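 Cells (1,000/well) were plated, left 16 h at 37 C/5% CO2, then given compound at 11 concentrations (1:3) from 57.5 uM to 0.977 nM for 48 h. ATPlite luminescence after 15 min at room temperature gave IC50 values.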
# % is set by controls: 0 for no effect and ±100 for the full control effect; potency is the fitted concentration of half-maximal effect.
Compound,"activity change, negative = viability loss",Potency
C[C@]12CC[C@H]3[C@@H](CCC4=CC(=O)CC[C@@H]43)[C@@H]1CC[C@@H]2OC(=O)CCc1ccccc1,inactive: -13.7%,
C/C=C(/C)C(=O)O[C@H]1C(C)=C2[C@H]([C@@H]1OC(=O)CCCCCCC)[C@@](C)(OC(C)=O)C[C@H](OC(=O)CCC)[C@@]1(O)[C@H]2OC(=O)[C@@]1(C)O,,"inconclusive: 3430 nM [cytotoxic, partial curve, poor fit]"
O=C(O)Cc1ccccc1,inactive: 11.9%,
CCC(=O)O[C@H]1CC[C@H]2[C@@H]3CCC4=CC(=O)CC[C@]4(C)[C@H]3CC[C@]12C,inactive: -25.3%,
CCOc1ccccc1-n1c(C(C)N2CCN(C(=O)COc3ccc(Cl)cc3)CC2)nc2ccccc2c1=O (configuration not stated),,"inconclusive: 48.5 nM [rising, partial curve]"
CCNC(=O)C[C@@H]1N=C(c2ccc(Cl)cc2)c2cc(OC)ccc2-n2c(C)nnc21,inactive: -8.57%,
CCN1CCN(C(=O)Cc2ccc(Nc3ncc(F)c(Nc4ccc(C(=O)Nc5ccccc5Cl)cc4)n3)cc2)CC1,,"inconclusive: 68.5 nM [rising, partial curve, poor fit]"
